# Library compounds against nucleic acid targets

Targets (5′ to 3′):
PreQ1: PreQ1 riboswitch RNA pseudoknot, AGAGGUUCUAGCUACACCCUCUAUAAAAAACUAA. From B. subtilis. About 24,000 compounds screened, about 170 hits.
SAM-II: SAM-II riboswitch RNA pseudoknot, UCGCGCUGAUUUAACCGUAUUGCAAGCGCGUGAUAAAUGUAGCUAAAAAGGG. About 21,000 compounds screened, about 200 hits.
TPP: TPP riboswitch RNA three-way junction, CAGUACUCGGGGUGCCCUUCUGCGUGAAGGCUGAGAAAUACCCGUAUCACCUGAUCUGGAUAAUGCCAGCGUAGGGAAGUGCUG. About 24,000 compounds screened, about 160 hits.

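The test is a small-molecule microarray: each compound is printed twice on a reactive slide, and binding shows as fluorescence of the labelled oligonucleotide after washing. The data file lists only calls. An earlier report of the laboratory on the PreQ1, TPP and SAM-II riboswitches (doi:10.1038/s41467-019-09493-3) used 1 µM RNA for 2 h and required a mean Z-score above 3 (spot signal-to-noise against the whole library), a score well above that on a control array, and duplicate spots agreeing (coefficient of variation under 100); it then also set aside compounds that hit other targets, which this list keeps. The cut-offs behind this list may differ. A missing hit is not proof of no binding, and a hit is not a measured affinity.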 Key: active = hit, inactive = tested without a hit. The compounds are a random part of those screened. A target missing from an entry has no call listed here. A dash means that no call is listed here.

{"smiles": "Cc1nc(CC(C)C)cc(C(=O)N2CCOCC(O)C2)n1", "stereo": "stereo not drawn", "PreQ1": "inactive", "SAM-II": "inactive", "TPP": "inactive"}
{"smiles": "CC(C)C[C@@H](N)[C@H](O)C(=O)N[C@H](C(=O)N[C@H](C(=O)N[C@@H](CC(=O)O)C(=O)O)C(C)C)C(C)C", "PreQ1": "inactive", "SAM-II": "inactive", "TPP": "inactive"}
{"smiles": "COc1ccc2c(CNCc3ccco3)c(C(=O)O)n(Cc3ccccc3C)c2c1", "PreQ1": "inactive", "TPP": "inactive"}
{"smiles": "COc1cccc2c(=O)n(C3CCNCC3)cnc12", "PreQ1": "inactive", "SAM-II": "inactive", "TPP": "inactive"}
{"smiles": "Nc1scc[n+]1Cc1ccccc1.[Cl-]", "PreQ1": "inactive", "SAM-II": "inactive", "TPP": "inactive"}
{"smiles": "COc1cc(CNCc2cccnc2)cc(Cl)c1OCc1cccs1", "PreQ1": "inactive", "SAM-II": "inactive", "TPP": "inactive"}
{"smiles": "CC(C)N(C)CC(=O)N1CCN(Cc2c[nH]cn2)CC(O)C1", "stereo": "stereo not drawn", "PreQ1": "inactive", "SAM-II": "inactive", "TPP": "inactive"}
{"smiles": "O=C(c1cc2ccccn2n1)N(CC=Cc1ccccc1)CCO", "PreQ1": "inactive", "SAM-II": "inactive", "TPP": "inactive"}
{"smiles": "Cn1cc(C=O)c2nccnc21", "PreQ1": "inactive", "SAM-II": "inactive", "TPP": "inactive"}
{"smiles": "CCOC(=O)c1cc(CNC(C)c2cc3ccccc3o2)on1", "stereo": "stereo not drawn", "PreQ1": "inactive", "SAM-II": "inactive", "TPP": "inactive"}
{"smiles": "O=C1CCCN1CCCNCc1ccc2c(c1)OCCO2", "PreQ1": "inactive", "SAM-II": "inactive", "TPP": "inactive"}
{"smiles": "CSCC[C@@H](CO)NC(=O)c1ccc2nc(C)cn2c1", "PreQ1": "inactive", "SAM-II": "inactive", "TPP": "inactive"}
{"smiles": "CCS(=O)(=O)Nc1ccc(C(=O)N2CCOCC(O)C2)cc1", "stereo": "stereo not drawn", "PreQ1": "inactive", "SAM-II": "inactive", "TPP": "inactive"}
{"smiles": "Nc1nc2n(n1)[C@@H](c1ccc(OCc3ccccc3)cc1)C[C@@H](c1ccc(F)cc1)N2", "PreQ1": "inactive", "SAM-II": "inactive", "TPP": "inactive"}
{"smiles": "Cc1nn(CC(=O)NCCCc2nnc(N)s2)c(=O)c2ccccc12", "PreQ1": "inactive", "SAM-II": "inactive", "TPP": "inactive"}
{"smiles": "NCCc1cccc(CN2CCC(O)(CN3CCCCC3)C2)c1", "stereo": "stereo not drawn", "PreQ1": "inactive", "SAM-II": "inactive", "TPP": "inactive"}
{"smiles": "CC1(C)c2ccccc2-c2nc3ccccc3cc2C1O", "stereo": "stereo not drawn", "PreQ1": "inactive", "SAM-II": "inactive", "TPP": "inactive"}
{"smiles": "Cc1noc(C)c1Cn1cnc(-c2ccccc2)c1-c1ccc(CO)o1", "PreQ1": "inactive", "SAM-II": "inactive", "TPP": "inactive"}
{"smiles": "O=C(CCN1CCC2(CC1)OCCCC2O)NCc1ccc(F)cc1", "stereo": "stereo not drawn", "PreQ1": "inactive", "SAM-II": "inactive", "TPP": "inactive"}
{"smiles": "C=CCn1c(N)cc(=O)nc1SCC(=O)NC1CCCCC1", "PreQ1": "inactive", "SAM-II": "inactive", "TPP": "inactive"}
{"smiles": "COc1cc2nc(N3CCC4(CC3)OCCCC4O)nc(N)c2cc1OC", "stereo": "stereo not drawn", "PreQ1": "inactive", "SAM-II": "inactive", "TPP": "inactive"}
{"smiles": "COc1ccc(C2C(C#N)=C(N)Oc3[nH]nc(C(C)(C)C)c32)c(OC)c1OC", "stereo": "stereo not drawn", "PreQ1": "inactive", "SAM-II": "inactive", "TPP": "inactive"}
{"smiles": "Cc1ccc([C@@H]2CN(C(=O)c3ccc(N)nc3)C[C@H]2NC(=O)C2CC2)cc1", "PreQ1": "inactive", "SAM-II": "inactive", "TPP": "inactive"}
{"smiles": "Cc1ccc2[nH]c(CN(C)C3CCNCC3)nc2c1", "PreQ1": "inactive", "SAM-II": "inactive", "TPP": "inactive"}
{"smiles": "CCNc1oc(-c2ccc(C)cc2)nc1S(=O)(=O)c1ccc(C)cc1", "PreQ1": "inactive", "TPP": "inactive"}
{"smiles": "CC(C)Nc1ccc(-c2cc(N)nc3[nH]ccc23)nn1", "PreQ1": "inactive", "SAM-II": "inactive", "TPP": "inactive"}
{"smiles": "CCc1ccc(-c2nccn2-c2ccccc2CCO)o1", "PreQ1": "inactive", "SAM-II": "inactive", "TPP": "inactive"}
{"smiles": "Cn1c(-c2ccc(CN3CCCC(O)(CO)C3)o2)nc2ccccc21", "stereo": "stereo not drawn", "PreQ1": "inactive", "SAM-II": "inactive", "TPP": "inactive"}
{"smiles": "CCOc1cc(CNCCc2ccc(F)cc2)ccc1OC", "PreQ1": "inactive", "SAM-II": "inactive", "TPP": "inactive"}
{"smiles": "Cc1ccc(-c2noc(CNC3CCCCC3)n2)cc1", "PreQ1": "inactive", "SAM-II": "inactive", "TPP": "inactive"}
{"smiles": "Cc1cnn(CCNc2nc(-c3ccncc3)nc3c2CCNCC3)c1", "PreQ1": "inactive", "SAM-II": "inactive", "TPP": "inactive"}
{"smiles": "CCCCNC(=O)Nc1ccc(-c2ccc(N)cn2)cc1", "PreQ1": "inactive", "SAM-II": "inactive", "TPP": "inactive"}

2 of the entries, repeated:

SMILES,PreQ1,SAM-II,TPP
CCNc1oc(-c2ccc(C)cc2)nc1S(=O)(=O)c1ccc(C)cc1,inactive,-,inactive
Cn1c(-c2ccc(CN3CCCC(O)(CO)C3)o2)nc2ccccc21 (stereo not drawn),inactive,inactive,inactive

Data from the ROBIN nucleic acid binder screens, doi:10.1002/anie.202211358.